Test results as given in PMC3374257.
Results are given in words; binding and its absence hold for the method and conditions named. In cells and extracts the contact can be indirect. Some entries that bind do so weakly or less than the wild type.

Amino acid sequences for entries named in this document (tags omitted).
UniProt Q8BKJ9: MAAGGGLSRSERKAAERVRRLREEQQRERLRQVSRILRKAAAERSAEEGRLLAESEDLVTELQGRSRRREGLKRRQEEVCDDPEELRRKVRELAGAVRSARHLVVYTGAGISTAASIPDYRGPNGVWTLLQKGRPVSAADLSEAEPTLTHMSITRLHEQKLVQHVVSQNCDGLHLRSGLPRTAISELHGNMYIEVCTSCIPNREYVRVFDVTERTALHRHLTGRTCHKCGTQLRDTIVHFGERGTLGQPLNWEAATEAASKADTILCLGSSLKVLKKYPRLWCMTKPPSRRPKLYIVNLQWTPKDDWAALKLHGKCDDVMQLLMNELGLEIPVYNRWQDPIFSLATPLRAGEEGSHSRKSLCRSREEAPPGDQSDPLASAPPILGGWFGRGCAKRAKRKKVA

Legend:
Sirt1 [1] = molecular target: T1, Sirt1 (UniProt Q923E4); experiment: co-IP; immunoprecipitation of endogenous proteins
T1 sequence: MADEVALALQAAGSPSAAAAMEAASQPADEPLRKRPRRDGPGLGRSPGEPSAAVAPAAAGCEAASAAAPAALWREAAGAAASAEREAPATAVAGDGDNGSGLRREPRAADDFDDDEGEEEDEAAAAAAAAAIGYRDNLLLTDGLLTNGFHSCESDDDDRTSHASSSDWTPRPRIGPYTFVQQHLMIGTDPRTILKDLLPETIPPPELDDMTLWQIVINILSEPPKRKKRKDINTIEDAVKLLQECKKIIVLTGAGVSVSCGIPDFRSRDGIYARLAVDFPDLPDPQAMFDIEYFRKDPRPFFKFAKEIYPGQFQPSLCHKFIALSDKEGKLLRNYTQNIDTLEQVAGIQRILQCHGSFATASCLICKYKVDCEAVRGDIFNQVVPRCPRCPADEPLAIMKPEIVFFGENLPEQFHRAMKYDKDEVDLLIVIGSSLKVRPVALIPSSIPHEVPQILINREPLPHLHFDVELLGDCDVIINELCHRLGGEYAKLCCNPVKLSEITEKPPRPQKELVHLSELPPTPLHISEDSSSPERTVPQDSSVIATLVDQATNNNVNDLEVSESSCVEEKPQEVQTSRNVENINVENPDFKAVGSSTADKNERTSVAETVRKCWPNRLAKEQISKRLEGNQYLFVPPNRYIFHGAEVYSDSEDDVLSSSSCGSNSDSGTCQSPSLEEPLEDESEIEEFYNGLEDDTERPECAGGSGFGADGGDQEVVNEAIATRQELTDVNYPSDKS

Sirt1 [2] = molecular target: T1, Sirt1; experiment: pull-down; GST pull-down assays; which partner carried GST is not stated

binding (Sirt1 [1]): binds
binding (Sirt1 [2]): binds
Substance: Sirt7 (from UniProt Q8BKJ9 1-402)
